From the supplement of paper PMC4604168 (melanoma cell lines)
The list shows a part of the results. Repeats are few or missing, and single values can be far off.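 Imaging used 1,536-well plates; nuclei positive for cleaved PARP by antibody were divided by total DNA-stained nuclei to yield the apoptosis fraction. Doses for screening kept most cells viable, and cell lines differ markedly in resting and induced cleaved-PARP levels.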

system: WM451Lu; assay: cleaved PARP positive nuclei fraction relative to DMSO control; melanoma cells; higher = more apoptosis; details: library dose: low library concentration; 72 h

For `NC(=O)c1ccc(N(C(N)=O)c2c(F)cccc2F)nc1-c1ccc(F)cc1F` + Nc1nc(F)nc2c1ncn2[C@@H]1O[C@H](CO)[C@@H](O)[C@@H]1O [fludarabine] (first compound 0.4 µM, partner dose 0.2 µM), which “cleaved PARP positive nuclei fraction” value is on record?
Its value is 85.1%.

`Cn1sc(=O)n(Cc2ccccc2)c1=O` + CNC(=O)c1cc(Oc2ccc(NC(=O)Nc3ccc(Cl)c(C(F)(F)F)c3)cc2)ccn1 [sorafenib] (first compound 0.4 µM, partner dose 0.4 µM) was tested. Which “cleaved PARP positive nuclei fraction” value did it give?
Its value is 45.1%.

`COc1ccc(C2=N[C@@H](c3ccc(Cl)cc3)[C@@H](c3ccc(Cl)cc3)N2C(=O)N2CCNC(=O)C2)c(OC(C)C)c1` [Nutlin-3] + CN(c1ncccc1CNc1nc(Nc2ccc3c(c2)CC(=O)N3)ncc1C(F)(F)F)S(C)(=O)=O [PF562271] (first compound 0.1 µM, partner dose 0.08 µM) was tested. Which “cleaved PARP positive nuclei fraction” value did it give?
Its value is 131%.

How did the “cleaved PARP positive nuclei fraction” value turn out when `CN(c1ncccc1CNc1nc(Nc2ccc3c(c2)CC(=O)N3)ncc1C(F)(F)F)S(C)(=O)=O` + Cn1c(=O)n(-c2ccc(C(C)(C)C#N)cc2)c2c3cc(-c4cnc5ccccc5c4)ccc3ncc21 [NVP-BEZ235] (first compound 0.08 µM, partner dose 0.004 µM) was run?
Its value is 88.8%.

`Cn1sc(=O)n(Cc2ccccc2)c1=O` + CCN(CC)CCNC(=O)c1c(C)[nH]c(/C=C2\C(=O)Nc3ccc(F)cc32)c1C [sunitinib] (first compound 0.4 µM, partner dose 0.4 µM) was tested. Which “cleaved PARP positive nuclei fraction” value did it give?
The value was 59.1%.

Which “cleaved PARP positive nuclei fraction” value does the source give for `CC1(C)CCC(c2ccc(Cl)cc2)=C(CN2CCN(c3ccc(C(=O)NS(=O)(=O)c4ccc(N[C@H](CCN5CCOCC5)CSc5ccccc5)c(S(=O)(=O)C(F)(F)F)c4)cc3)CC2)C1` + Cc1nc(Nc2ncc(C(=O)Nc3c(C)cccc3Cl)s2)cc(N2CCN(CCO)CC2)n1 [dasatanib] (first compound 0.4 µM, partner dose 0.004 µM) here?
Its value is 253%.

With `Cn1cnc2c(F)c(Nc3ccc(Br)cc3Cl)c(C(=O)NOCCO)cc21` [selumetinib] + Cn1c(Nc2ccc(C(F)(F)F)cc2)nc2cc(Oc3ccnc(-c4ncc(C(F)(F)F)[nH]4)c3)ccc21 [CHIR265] (first compound 0.015 µM, partner dose 0.08 µM) as the compound, how does the “cleaved PARP positive nuclei fraction” value read?
The value was 113%.

`C[C@@H](N)c1ccc(C(=O)Nc2ccnc3[nH]ccc23)cc1` + Nc1ncn([C@H]2C[C@H](O)[C@@H](CO)O2)c(=O)n1 [decitabine] (first compound 0.4 µM, partner dose 0.1 µM) was tested. Which “cleaved PARP positive nuclei fraction” value did it give?
Its value is 64.9%.

With `CC1(C)CCC(c2ccc(Cl)cc2)=C(CN2CCN(c3ccc(C(=O)NS(=O)(=O)c4ccc(N[C@H](CCN5CCOCC5)CSc5ccccc5)c(S(=O)(=O)C(F)(F)F)c4)cc3)CC2)C1` + COCC[n+]1c2c(n(Cc3cnccn3)c1C)C(=O)c1ccccc1C2=O [YM155] (first compound 0.4 µM, partner dose 0.0004 µM) as the compound, how does the “cleaved PARP positive nuclei fraction” value read?
Its value is 49.5%.

Which “cleaved PARP positive nuclei fraction” value does the source give for `Cn1sc(=O)n(Cc2ccccc2)c1=O` + CS(=O)(=O)CCNCc1ccc(-c2ccc3ncnc(Nc4ccc(OCc5cccc(F)c5)c(Cl)c4)c3c2)o1 [lapatinib] (first compound 0.4 µM, partner dose 0.8 µM) here?
Its value is 90.2%.

With `Cn1cnc2c(F)c(Nc3ccc(Br)cc3Cl)c(C(=O)NOCCO)cc21` [selumetinib] + Nc1nc(F)nc2c1ncn2[C@@H]1O[C@H](CO)[C@@H](O)[C@@H]1O [fludarabine] (first compound 0.015 µM, partner dose 0.2 µM) as the compound, how does the “cleaved PARP positive nuclei fraction” value read?
The value was 219%.

With `CS(=O)(=O)c1ccc(C(=O)Nc2ccc(Cl)c(-c3ccccn3)c2)c(Cl)c1` [vismodegib] + CC(C)C[C@H](NC(=O)[C@H](Cc1ccccc1)NC(=O)c1cnccn1)B(O)O [Bortezomib] (first compound 1 µM, partner dose 0.001 µM) as the compound, how does the “cleaved PARP positive nuclei fraction” value read?
Its value is 87.2%.

How did the “cleaved PARP positive nuclei fraction” value turn out when `CC1(C)CCC(c2ccc(Cl)cc2)=C(CN2CCN(c3ccc(C(=O)NS(=O)(=O)c4ccc(N[C@H](CCN5CCOCC5)CSc5ccccc5)c(S(=O)(=O)C(F)(F)F)c4)cc3)CC2)C1` + C=C(c1ccc(C(=O)O)cc1)c1cc2c(cc1C)C(C)(C)CCC2(C)C [Bexarotene] (first compound 0.4 µM, partner dose 2 µM) was run?
Its value is 59.1%.

How did the “cleaved PARP positive nuclei fraction” value turn out when `CS(=O)(=O)c1ccc(C(=O)Nc2ccc(Cl)c(-c3ccccn3)c2)c(Cl)c1` [vismodegib] + CC(=O)c1c(C)c2cnc(Nc3ccc(N4CCNCC4)cn3)nc2n(C2CCCC2)c1=O [palbociclib] (first compound 1 µM, partner dose 0.04 µM) was run?
The value was 39.9%.

With `NC(=O)c1ccc(N(C(N)=O)c2c(F)cccc2F)nc1-c1ccc(F)cc1F` + C#Cc1cccc(Nc2ncnc3cc(OCCOC)c(OCCOC)cc23)c1 [erlotinib] (first compound 0.4 µM, partner dose 0.8 µM) as the compound, how does the “cleaved PARP positive nuclei fraction” value read?
The value was 63.8%.

`CS(=O)(=O)c1ccc(C(=O)Nc2ccc(Cl)c(-c3ccccn3)c2)c(Cl)c1` [vismodegib] + Nc1nc(F)nc2c1ncn2[C@@H]1O[C@H](CO)[C@@H](O)[C@@H]1O [fludarabine] (first compound 1 µM, partner dose 0.2 µM) was tested. Which “cleaved PARP positive nuclei fraction” value did it give?
Its value is 305%.

How did the “cleaved PARP positive nuclei fraction” value turn out when `NC(=O)c1ccc(N(C(N)=O)c2c(F)cccc2F)nc1-c1ccc(F)cc1F` + C=CCNC1=C2C[C@@H](C)C[C@H](OC)[C@H](O)[C@@H](C)/C=C(\C)[C@H](OC(N)=O)[C@@H](OC)/C=C\C=C(/C)C(=O)NC(=CC1=O)C2=O [Tanespimycin] (first compound 0.4 µM, partner dose 0.002 µM) was run?
Its value is 46.7%.

Which “cleaved PARP positive nuclei fraction” value does the source give for `CC(=O)O[C@@]12CO[C@@H]1C[C@H](O)[C@@]1(C)C(=O)[C@H](O)C3=C(C)[C@@H](OC(=O)[C@H](O)[C@@H](NC(=O)OC(C)(C)C)c4ccccc4)C[C@@](O)([C@@H](OC(=O)c4ccccc4)[C@H]21)C3(C)C` [Docetaxel] + C=C(c1ccc(C(=O)O)cc1)c1cc2c(cc1C)C(C)(C)CCC2(C)C [Bexarotene] (first compound 0.0001 µM, partner dose 2 µM) here?
Its value is 212%.

How did the “cleaved PARP positive nuclei fraction” value turn out when `CC(=O)O[C@@]12CO[C@@H]1C[C@H](O)[C@@]1(C)C(=O)[C@H](O)C3=C(C)[C@@H](OC(=O)[C@H](O)[C@@H](NC(=O)OC(C)(C)C)c4ccccc4)C[C@@](O)([C@@H](OC(=O)c4ccccc4)[C@H]21)C3(C)C` [Docetaxel] + C[C@]1(c2nc3c(C(N)=O)cccc3[nH]2)CCCN1 [Veliparib] (first compound 0.0001 µM, partner dose 1.4 µM) was run?
The value was 187%.

`CCN(CC)CCNC(=O)c1c(C)[nH]c(/C=C2\C(=O)Nc3ccc(F)cc32)c1C` [sunitinib] + OCc1c[nH]c2ccccc12 [Indole-3-carbinol] (first compound 0.4 µM, partner dose 0.8 µM) was tested. Which “cleaved PARP positive nuclei fraction” value did it give?
The value was 58.1%.

For `C[C@]1(O)C[C@@H](c2nc(-c3ccc4ccc(-c5ccccc5)nc4c3)c3c(N)nccn32)C1` + CCCS(=O)(=O)Nc1ccc(F)c(C(=O)c2c[nH]c3ncc(Cl)cc23)c1F [PLX4720] (first compound 0.4 µM, partner dose 0.08 µM), which “cleaved PARP positive nuclei fraction” value is on record?
Its value is 126%.

For `Cn1cnc2c(F)c(Nc3ccc(Br)cc3Cl)c(C(=O)NOCCO)cc21` [selumetinib] + C#Cc1cccc(Nc2ncnc3cc(OCCOC)c(OCCOC)cc23)c1 [erlotinib] (first compound 0.015 µM, partner dose 0.8 µM), which “cleaved PARP positive nuclei fraction” value is on record?
The value was 11.8%.

`Cn1sc(=O)n(Cc2ccccc2)c1=O` + OCc1c[nH]c2ccccc12 [Indole-3-carbinol] (first compound 0.4 µM, partner dose 0.8 µM) was tested. Which “cleaved PARP positive nuclei fraction” value did it give?
Its value is 81%.

Which “cleaved PARP positive nuclei fraction” value does the source give for `Cn1cnc2c(F)c(Nc3ccc(Br)cc3Cl)c(C(=O)NOCCO)cc21` [selumetinib] + C[C@@H](Oc1cc(-c2cnn(C3CCNCC3)c2)cnc1N)c1c(Cl)ccc(F)c1Cl [Crizotinib] (first compound 0.015 µM, partner dose 0.2 µM) here?
The value was 69.6%.

With `NC(=O)c1ccc(N(C(N)=O)c2c(F)cccc2F)nc1-c1ccc(F)cc1F` + Clc1ccc(Nc2nnc(Cc3ccncc3)c3ccccc23)cc1 [vatalanib] (first compound 0.4 µM, partner dose 2 µM) as the compound, how does the “cleaved PARP positive nuclei fraction” value read?
The value was 80%.

With `Cn1sc(=O)n(Cc2ccccc2)c1=O` + Clc1ccc(Nc2nnc(Cc3ccncc3)c3ccccc23)cc1 [vatalanib] (first compound 0.4 µM, partner dose 2 µM) as the compound, how does the “cleaved PARP positive nuclei fraction” value read?
The value was 84.6%.

`COc1ccc(C2=N[C@@H](c3ccc(Cl)cc3)[C@@H](c3ccc(Cl)cc3)N2C(=O)N2CCNC(=O)C2)c(OC(C)C)c1` [Nutlin-3] + CC(=O)c1c(C)c2cnc(Nc3ccc(N4CCNCC4)cn3)nc2n(C2CCCC2)c1=O [palbociclib] (first compound 0.1 µM, partner dose 0.04 µM) was tested. Which “cleaved PARP positive nuclei fraction” value did it give?
Its value is 120%.

How did the “cleaved PARP positive nuclei fraction” value turn out when `COc1ccc(C2=N[C@@H](c3ccc(Cl)cc3)[C@@H](c3ccc(Cl)cc3)N2C(=O)N2CCNC(=O)C2)c(OC(C)C)c1` [Nutlin-3] + Cn1c(=O)n(-c2ccc(C(C)(C)C#N)cc2)c2c3cc(-c4cnc5ccccc5c4)ccc3ncc21 [NVP-BEZ235] (first compound 0.1 µM, partner dose 0.004 µM) was run?
The value was 43.1%.

For `NC(=O)c1ccc(N(C(N)=O)c2c(F)cccc2F)nc1-c1ccc(F)cc1F` + C=C(c1ccc(C(=O)O)cc1)c1cc2c(cc1C)C(C)(C)CCC2(C)C [Bexarotene] (first compound 0.4 µM, partner dose 2 µM), which “cleaved PARP positive nuclei fraction” value is on record?
Its value is 97.4%.
